The values that follow are results of earlier work, collected in patent US9937166B2 (INFLAMMATORY RESPONSE RESEARCH, INC., priority 2013, dated 2018).

Amino acid sequences for entries named in this document (tags omitted).
UniProt P35367, whole entry: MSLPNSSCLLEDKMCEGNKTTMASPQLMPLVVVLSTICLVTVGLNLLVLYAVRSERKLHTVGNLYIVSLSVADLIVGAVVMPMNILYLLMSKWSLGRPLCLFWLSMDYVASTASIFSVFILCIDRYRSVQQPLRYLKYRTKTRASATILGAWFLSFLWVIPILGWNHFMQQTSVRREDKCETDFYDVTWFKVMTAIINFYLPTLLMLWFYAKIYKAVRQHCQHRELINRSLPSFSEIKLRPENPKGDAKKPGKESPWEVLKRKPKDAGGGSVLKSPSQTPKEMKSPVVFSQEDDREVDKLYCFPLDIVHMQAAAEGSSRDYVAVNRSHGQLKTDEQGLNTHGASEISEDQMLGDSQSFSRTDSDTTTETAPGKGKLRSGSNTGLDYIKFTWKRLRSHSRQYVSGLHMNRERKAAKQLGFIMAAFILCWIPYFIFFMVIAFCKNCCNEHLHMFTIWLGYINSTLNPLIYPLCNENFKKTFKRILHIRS

The target of one data set is H1 receptor (Homo sapiens, UniProt P35367).
The conditions of data set [1]: in vivo.

In the case of `O=C(O)COCCN1CCN([C@H](c2ccccc2)c2ccc(Cl)cc2)CC1` [levocetirizine], on H1 receptor, the “Receptor affinity in an acidic ph, increased” value is recorded as “increased 5×”. For the same compound, the “Time to peak plasma level” value in data set [1] is 0.9 h.
